Source: US20170215422A1 (priority 2012, published 2017)

test: peptide synthesis; settings: coupling step

| Substance | step yield [%] |
| --- | --- |
| N-Boc-N-Me-L-Ala-(R)-Hep-N-Me-L-Ala-(R)-Hep(OBn) | 96 |
| N-Boc-N-Me-L-Ala-(R)-Hep-N-Me-L-Ala-(R)-Hep-N-Me-L-Ala-(R)-Hep(OBn) | 83 |
| N-Boc-N-Me-L-Gly-(R)-Hep-N-Me-L-Gly-(R)-Hep-N-Me-L-Leu-(R)-Hep-N-Me-L-Leu-(R)-Hep(OBn) | 71 |
| N-Boc-N-Me-L-Nle-(R)-Nna-N-Me-L-Ala-(R)-Hep-N-Me-L-Ala-(R)-Hep-N-Me-L-Ala-(R)-Hep(OBn) | 91 |

same assay, conditions: cyclisation step, head-to-tail ring, sequence written open

| Substance | cyclisation yield [%] |
| --- | --- |
| Cycro(-N-Me-L-Gly-(R)-Hep-N-Me-L-Gly-(R)-Hep-N-Me-L-Leu-(R)-Hep-N-Me-L-Leu-(R)-Hep-) | 67 |
| Cycro(-N-Me-L-Gly-(R)-Oct-N-Me-L-Ala-(R)Hep-N-Me-L-Ala-(R)-Hep-N-Me-L-Ala-(R)-Hep-) | 75 |
